# US20050148838A1, “Pharmaceutical discovery and development” (priority 2002, published 2005)
# Experiment: Coulometric EC-MS (voltammetric mass spectrometry), Phase I type EC oxidation
# Format: physicochemical
# Conditions: not given
# Text: Referring to FIG. 1A, a Model 1100 LC/MSD single quadrupole mass spectrometer 10 (Agilent Technologies, Palo Alto, Calif., USA) was used in combination with a Coulochem® III ECD 12 and Model 5021 coulometric cell 14 (ESA Inc., Chelmsford, Mass., USA).
# Compounds are characterized via automated sequences, in which EC potential is changed from, e.g., 0-1200 mV(vs. Pd) in increments of, e.g., 200 mV. EC current and MS ion abundance at specific mass-to-charge ratios (m/z) is monitored. In accordance with the present invention, EC (e.g., coulometric, or amperometric) and reaction product profiles for various drug candidates can be obtained reproducibly. Peak area for parent compounds is inversely proportional to EC response with concomitant formation of reaction products.
row,SMILES,O-dealkylation by EC oxidation
1,CCOc1ccc2ccc(=O)oc2c1 [7-Ethoxycoumarin],not observed

# Same assay, conditions: product ion vs parent after EC oxidation, FIA, 50% aqueous methanol, 0.1 ml/min
row,SMILES,Mass Shift
1,C[C@]12CC[C@@H]3c4cc(O)c(O)cc4CC[C@H]3[C@@H]1CC[C@@H]2O [2-Hydroxyestradiol],−2
2,COc1cc2c(cc1O)CC[C@@H]1[C@@H]2CC[C@]2(C)[C@@H](O)CC[C@@H]12 [2-Methoxyestradiol],−16
3,C[C@]12CC[C@@H]3c4ccc(O)c(O)c4CC[C@H]3[C@@H]1CC[C@@H]2O [4-Hydroxyestradiol],−2
4,COc1c(O)ccc2c1CC[C@@H]1[C@@H]2CC[C@]2(C)[C@@H](O)CC[C@@H]12 [4-Methoxyestradiol],−16
5,N[C@@H](CCS)C(=O)O [Homocysteine],+16
6,CN(C)CCCN1c2ccccc2CCc2ccccc21 [Imipramine],−14
7,CSCC[C@H](N)C(=O)O [Methionine],+16
8,CCCCN1C[C@H](O)[C@@H](O)[C@H](O)[C@H]1CO [N-butyldeoxynojirimycin],+16
9,CC(C)NCC(O)COc1cccc2ccccc12 (stereo not shown) [Propranolol],−42
